# The other results are listed elsewhere or left out.
# Amino acid sequences for entries named in this document (tags omitted). A change or cut given only in a name is not applied to a line headed by its entry.
# UniProt Q01433: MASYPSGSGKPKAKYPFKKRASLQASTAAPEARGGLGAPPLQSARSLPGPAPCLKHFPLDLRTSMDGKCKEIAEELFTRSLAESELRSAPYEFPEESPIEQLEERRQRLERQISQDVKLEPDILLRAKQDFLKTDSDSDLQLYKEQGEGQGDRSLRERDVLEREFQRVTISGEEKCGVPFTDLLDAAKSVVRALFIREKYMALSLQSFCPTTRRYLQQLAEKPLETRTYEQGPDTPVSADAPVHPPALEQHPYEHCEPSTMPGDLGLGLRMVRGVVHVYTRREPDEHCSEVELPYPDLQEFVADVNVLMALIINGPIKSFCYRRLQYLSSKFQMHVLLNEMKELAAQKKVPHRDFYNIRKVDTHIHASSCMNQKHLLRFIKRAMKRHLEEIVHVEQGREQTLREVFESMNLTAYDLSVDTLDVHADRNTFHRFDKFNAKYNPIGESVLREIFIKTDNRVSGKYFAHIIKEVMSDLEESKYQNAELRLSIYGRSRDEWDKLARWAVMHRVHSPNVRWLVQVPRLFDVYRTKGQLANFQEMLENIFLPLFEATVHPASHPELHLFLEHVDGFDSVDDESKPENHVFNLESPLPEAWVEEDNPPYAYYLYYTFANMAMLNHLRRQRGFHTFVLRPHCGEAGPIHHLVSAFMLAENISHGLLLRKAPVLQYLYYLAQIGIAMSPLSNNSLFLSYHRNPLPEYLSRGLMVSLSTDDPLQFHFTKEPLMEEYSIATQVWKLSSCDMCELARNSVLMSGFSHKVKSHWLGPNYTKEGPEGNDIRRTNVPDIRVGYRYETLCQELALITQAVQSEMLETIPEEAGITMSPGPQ
# UniProt Q96A54: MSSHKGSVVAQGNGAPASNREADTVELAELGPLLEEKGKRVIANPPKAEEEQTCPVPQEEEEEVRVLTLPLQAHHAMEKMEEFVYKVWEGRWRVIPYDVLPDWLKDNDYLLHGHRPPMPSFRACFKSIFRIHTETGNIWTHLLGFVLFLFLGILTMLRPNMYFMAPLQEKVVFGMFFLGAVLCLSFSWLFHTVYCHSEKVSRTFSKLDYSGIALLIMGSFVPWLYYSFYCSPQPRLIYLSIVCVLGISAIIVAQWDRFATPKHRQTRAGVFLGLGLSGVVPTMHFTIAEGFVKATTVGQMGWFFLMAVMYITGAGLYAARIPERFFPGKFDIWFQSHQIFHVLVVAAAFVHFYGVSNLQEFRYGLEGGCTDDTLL
# UniProt Q9ULX6: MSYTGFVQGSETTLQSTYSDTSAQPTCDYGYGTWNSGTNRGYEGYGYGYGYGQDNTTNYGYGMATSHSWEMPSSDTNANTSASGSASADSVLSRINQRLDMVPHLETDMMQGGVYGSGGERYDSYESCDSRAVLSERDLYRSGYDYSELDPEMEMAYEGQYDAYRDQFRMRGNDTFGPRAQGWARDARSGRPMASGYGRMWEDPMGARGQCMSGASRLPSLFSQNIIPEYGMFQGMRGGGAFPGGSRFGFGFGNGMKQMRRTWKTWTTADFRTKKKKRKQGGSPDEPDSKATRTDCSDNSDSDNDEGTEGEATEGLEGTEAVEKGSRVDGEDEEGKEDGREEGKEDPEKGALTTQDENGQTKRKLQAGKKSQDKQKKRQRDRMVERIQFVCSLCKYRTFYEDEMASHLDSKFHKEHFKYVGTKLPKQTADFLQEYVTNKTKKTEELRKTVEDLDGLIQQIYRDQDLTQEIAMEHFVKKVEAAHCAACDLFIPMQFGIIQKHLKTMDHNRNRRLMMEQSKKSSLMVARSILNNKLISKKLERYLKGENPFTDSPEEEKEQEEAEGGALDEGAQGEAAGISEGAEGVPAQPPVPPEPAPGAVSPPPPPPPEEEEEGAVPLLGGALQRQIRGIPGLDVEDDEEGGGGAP
# UniProt P52895: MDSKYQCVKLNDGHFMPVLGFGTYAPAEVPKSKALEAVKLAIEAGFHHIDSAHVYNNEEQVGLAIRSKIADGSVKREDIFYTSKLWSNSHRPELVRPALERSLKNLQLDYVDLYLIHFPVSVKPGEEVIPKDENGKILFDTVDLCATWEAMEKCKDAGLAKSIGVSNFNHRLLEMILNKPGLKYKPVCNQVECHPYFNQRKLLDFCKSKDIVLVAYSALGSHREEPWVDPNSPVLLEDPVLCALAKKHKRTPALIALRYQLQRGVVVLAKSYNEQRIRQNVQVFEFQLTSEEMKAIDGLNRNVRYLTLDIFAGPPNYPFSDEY
# UniProt O00170: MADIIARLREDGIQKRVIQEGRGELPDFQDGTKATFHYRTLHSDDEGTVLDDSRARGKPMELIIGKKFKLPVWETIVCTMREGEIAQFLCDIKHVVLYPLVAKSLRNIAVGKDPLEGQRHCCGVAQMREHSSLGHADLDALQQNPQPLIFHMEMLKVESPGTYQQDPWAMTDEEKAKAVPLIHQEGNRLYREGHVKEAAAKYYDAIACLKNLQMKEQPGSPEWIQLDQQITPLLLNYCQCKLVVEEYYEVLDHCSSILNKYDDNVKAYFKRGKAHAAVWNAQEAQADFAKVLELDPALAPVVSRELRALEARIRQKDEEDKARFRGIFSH
# UniProt Q99943: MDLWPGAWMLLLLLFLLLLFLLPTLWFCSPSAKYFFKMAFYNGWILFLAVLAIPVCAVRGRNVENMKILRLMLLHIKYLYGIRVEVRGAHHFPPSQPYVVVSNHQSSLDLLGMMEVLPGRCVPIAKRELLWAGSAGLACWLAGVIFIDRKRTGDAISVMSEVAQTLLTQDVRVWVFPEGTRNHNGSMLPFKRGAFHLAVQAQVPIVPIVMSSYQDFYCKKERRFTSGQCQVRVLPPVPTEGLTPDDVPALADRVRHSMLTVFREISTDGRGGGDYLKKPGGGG
# UniProt P31749: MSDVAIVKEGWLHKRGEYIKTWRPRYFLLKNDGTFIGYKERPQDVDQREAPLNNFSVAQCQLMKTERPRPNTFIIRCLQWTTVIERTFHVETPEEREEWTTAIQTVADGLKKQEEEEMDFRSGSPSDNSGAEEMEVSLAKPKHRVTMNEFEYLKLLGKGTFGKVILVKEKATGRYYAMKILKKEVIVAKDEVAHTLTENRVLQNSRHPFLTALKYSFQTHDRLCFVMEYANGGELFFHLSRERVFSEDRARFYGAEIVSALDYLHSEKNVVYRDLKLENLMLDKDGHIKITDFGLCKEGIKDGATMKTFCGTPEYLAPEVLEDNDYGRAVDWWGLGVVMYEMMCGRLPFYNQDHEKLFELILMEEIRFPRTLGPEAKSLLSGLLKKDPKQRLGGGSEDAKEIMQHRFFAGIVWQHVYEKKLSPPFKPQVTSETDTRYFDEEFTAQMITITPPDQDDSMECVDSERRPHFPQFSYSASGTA
# UniProt P49189: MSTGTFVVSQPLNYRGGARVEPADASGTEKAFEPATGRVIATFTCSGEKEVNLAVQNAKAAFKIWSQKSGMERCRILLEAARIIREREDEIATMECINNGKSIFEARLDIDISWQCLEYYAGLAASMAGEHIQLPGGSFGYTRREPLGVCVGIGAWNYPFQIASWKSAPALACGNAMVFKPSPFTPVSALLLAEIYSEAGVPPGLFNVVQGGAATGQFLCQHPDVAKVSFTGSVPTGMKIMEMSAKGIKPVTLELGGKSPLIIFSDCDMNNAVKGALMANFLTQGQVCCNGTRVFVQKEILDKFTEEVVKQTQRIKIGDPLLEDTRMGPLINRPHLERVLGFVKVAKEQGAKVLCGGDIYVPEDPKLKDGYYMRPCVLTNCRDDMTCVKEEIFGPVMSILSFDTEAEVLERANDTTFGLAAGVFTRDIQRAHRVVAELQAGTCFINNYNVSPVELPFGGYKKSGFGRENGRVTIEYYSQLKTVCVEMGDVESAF
# UniProt Q9BRQ8: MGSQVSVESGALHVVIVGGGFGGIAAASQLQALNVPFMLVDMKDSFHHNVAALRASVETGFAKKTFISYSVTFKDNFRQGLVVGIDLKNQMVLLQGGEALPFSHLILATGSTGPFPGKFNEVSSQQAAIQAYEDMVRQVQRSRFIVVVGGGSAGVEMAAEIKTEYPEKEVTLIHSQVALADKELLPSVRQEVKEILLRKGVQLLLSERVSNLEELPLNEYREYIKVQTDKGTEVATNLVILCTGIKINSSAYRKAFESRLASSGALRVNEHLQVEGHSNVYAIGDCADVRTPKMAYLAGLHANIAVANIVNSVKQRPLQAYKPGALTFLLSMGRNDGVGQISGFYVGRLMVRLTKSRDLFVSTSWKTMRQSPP
# UniProt Q9UKV5, whole entry, looked up: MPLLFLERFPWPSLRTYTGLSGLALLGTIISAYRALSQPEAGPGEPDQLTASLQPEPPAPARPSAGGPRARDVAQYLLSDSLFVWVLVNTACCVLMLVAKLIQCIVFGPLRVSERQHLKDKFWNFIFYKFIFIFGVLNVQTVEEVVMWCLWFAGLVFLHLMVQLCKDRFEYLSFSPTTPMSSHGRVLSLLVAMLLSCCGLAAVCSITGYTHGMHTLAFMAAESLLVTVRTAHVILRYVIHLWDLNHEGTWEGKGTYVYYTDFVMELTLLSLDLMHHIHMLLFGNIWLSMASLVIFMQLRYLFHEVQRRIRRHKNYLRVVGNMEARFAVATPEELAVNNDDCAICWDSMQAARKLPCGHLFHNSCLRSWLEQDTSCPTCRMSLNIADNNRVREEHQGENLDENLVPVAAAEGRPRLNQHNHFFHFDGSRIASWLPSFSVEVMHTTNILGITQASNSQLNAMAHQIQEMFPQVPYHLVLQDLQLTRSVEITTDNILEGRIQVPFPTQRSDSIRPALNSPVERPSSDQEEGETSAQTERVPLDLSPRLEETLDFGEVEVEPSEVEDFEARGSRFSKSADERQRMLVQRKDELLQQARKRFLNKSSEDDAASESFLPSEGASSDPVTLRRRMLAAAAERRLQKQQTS
# UniProt P30837: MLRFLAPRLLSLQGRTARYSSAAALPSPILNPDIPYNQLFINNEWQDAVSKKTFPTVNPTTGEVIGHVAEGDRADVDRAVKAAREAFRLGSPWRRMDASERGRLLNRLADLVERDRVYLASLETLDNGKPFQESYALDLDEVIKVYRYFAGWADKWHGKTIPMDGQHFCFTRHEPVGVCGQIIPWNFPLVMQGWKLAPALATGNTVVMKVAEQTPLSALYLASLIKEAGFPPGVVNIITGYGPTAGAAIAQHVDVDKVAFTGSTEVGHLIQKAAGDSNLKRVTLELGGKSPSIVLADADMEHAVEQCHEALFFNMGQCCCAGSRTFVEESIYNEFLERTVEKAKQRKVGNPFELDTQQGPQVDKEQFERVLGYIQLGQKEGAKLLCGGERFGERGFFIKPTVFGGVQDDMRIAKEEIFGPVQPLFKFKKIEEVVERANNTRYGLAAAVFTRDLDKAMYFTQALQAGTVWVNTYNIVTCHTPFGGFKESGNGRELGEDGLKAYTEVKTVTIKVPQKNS
# UniProt Q9NUQ2: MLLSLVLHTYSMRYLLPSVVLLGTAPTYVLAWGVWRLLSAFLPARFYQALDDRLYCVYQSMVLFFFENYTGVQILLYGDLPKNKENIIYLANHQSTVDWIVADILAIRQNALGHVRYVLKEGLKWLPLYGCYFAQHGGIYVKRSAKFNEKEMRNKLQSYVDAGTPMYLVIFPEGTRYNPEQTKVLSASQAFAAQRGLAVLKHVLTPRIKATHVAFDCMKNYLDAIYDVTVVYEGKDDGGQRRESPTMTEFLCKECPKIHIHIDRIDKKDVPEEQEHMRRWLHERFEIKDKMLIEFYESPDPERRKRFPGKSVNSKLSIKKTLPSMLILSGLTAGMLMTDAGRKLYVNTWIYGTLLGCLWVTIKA
# UniProt P42330: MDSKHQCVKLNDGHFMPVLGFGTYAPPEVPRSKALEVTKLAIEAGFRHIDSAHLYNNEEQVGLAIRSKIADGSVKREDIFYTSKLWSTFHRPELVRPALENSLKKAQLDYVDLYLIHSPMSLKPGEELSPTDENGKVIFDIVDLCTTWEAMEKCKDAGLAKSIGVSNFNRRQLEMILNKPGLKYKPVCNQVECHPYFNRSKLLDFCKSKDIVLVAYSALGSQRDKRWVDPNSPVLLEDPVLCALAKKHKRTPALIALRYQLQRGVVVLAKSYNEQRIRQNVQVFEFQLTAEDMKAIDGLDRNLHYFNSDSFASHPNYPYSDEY
# UniProt Q16186: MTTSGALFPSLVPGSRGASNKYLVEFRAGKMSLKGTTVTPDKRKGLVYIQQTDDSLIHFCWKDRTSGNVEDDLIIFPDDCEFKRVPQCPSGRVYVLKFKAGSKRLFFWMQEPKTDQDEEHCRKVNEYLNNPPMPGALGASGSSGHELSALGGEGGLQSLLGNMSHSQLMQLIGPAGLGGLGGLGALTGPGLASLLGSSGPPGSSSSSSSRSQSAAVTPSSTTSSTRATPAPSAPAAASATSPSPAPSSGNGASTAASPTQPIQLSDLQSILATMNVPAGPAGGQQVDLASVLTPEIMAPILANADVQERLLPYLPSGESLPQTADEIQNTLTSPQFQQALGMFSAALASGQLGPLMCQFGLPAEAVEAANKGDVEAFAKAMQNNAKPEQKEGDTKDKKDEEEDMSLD
# What was measured:
# Assay in all cases: log2 fold change, soluble protein after heating vs DMSO (PISA); higher = thermal stabilisation; K562 cells, 10 uM, 30 min; active = over 0.2 and 3.5 SD of the protein, either way, in both replicates (recomputed)
# [1] = compound: CC[C@@H]1C(=O)N(C)c2cnc(Nc3ccc(C(=O)NC4CCN(C)CC4)cc3OC)nc2N1C1CCCC1
# How it was run: (§1)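 Soluble protein was quantified by TMTpro 16plex LC-MS/MS after channel sums were equalised. It was obtained as the supernatant after 21,000xg for 90 min from pooled aliquots of K562 cells (2×10^6 cells/mL, 10 μM compound, 30 min) heated for 3 min across 48°C-58°C and extracted in PBS with 0.5% NP-40 at 4°C. Thermal stability values are relative to control samples and come from duplicates. They are given as log2 fold changes.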
# volasertib = compound: CC[C@@H]1C(=O)N(C)c2cnc(Nc3ccc(C(=O)N[C@H]4CC[C@H](N5CCN(CC6CC6)CC5)CC4)cc3OC)nc2N1C(C)C [volasertib]
# How it was run: as §1
# [2] = compound: CC[C@H](C)N1C=C(C2=C(C=C(C=C21)C3=CN=C(C=C3)N4CCNCC4)C(=O)NCC5=C(C=C(NC5=O)C)C)C
# How it was run: as §1
# epoxomicin = compound: CC[C@H](C)[C@@H](C(=O)N[C@@H]([C@@H](C)O)C(=O)N[C@@H](CC(C)C)C(=O)[C@]1(CO1)C)NC(=O)[C@H]([C@@H](C)CC)N(C)C(=O)C [epoxomicin]
# How it was run: as §1
# [3] = compound: CCn1c(C(=O)N(C2CC2)C2CC2)cc2c3c(ncn3C)c(Nc3cc(C)n(C)n3)nc21
# How it was run: as §1
# [4] = compound: CCn1cc(-c2ccnc3[nH]c(-c4cccc(CN(C)C)c4)cc23)c(-c2ccc(NC(=O)N(C)C)cc2)n1
# How it was run: as §1
# [5] = compound: CN(C)CC(=O)Nc1ccc2[nH]c(=O)c3ccccc3c2c1
# How it was run: as §1
# rosiglitazone = compound: CN(CCOC1=CC=C(C=C1)C[C@H]2C(=O)NC(=O)S2)C3=CC=CC=N3 (racemic) [rosiglitazone]
# How it was run: as §1
# [6] = compound: CN1C2=C(C3=C1C(=O)N(N=C3)CC4=CC(=CC=C4)N)SC(=C2)S(=O)C
# How it was run: as §1
# [7] = compound: CN1CCC(CNc2ccc3ncc(-c4cccc(OC(F)(F)F)c4)n3n2)CC1
# How it was run: as §1
# saracatinib = compound: CN1CCN(CCOc2cc(OC3CCOCC3)c3c(Nc4c(Cl)ccc5c4OCO5)ncnc3c2)CC1 [saracatinib]
# How it was run: as §1
# sotrastaurin = compound: CN1CCN(c2nc(C3=C(c4c[nH]c5ccccc45)C(=O)NC3=O)c3ccccc3n2)CC1 [sotrastaurin]
# How it was run: as §1
# alvocidib = compound: CN1CC[C@H](c2c(O)cc(O)c3c(=O)cc(-c4ccccc4Cl)oc23)[C@H](O)C1 [alvocidib]
# How it was run: as §1
# Tubastatin A = compound: CN1CCc2c(c3ccccc3n2Cc2ccc(C(=O)NO)cc2)C1 [Tubastatin A]
# How it was run: as §1
# [8] = compound: CNC(=O)C1=CC=CC=C1NC2=NC(=NC=C2Cl)NC3=C(C=C(C=C3)N4CCOCC4)OC
# How it was run: as §1
# defactinib = compound: CNC(=O)c1ccc(Nc2ncc(C(F)(F)F)c(NCc3nccnc3N(C)S(C)(=O)=O)n2)cc1 [defactinib]
# How it was run: as §1
# rucaparib = compound: CNCc1ccc(-c2[nH]c3cc(F)cc4c3c2CCNC4=O)cc1 [rucaparib]
# How it was run: as §1
# [9] = compound: CNc1nc(-c2ccc3c(N)n[nH]c3c2)cc(N2C[C@@H](C(=O)NC3CCCCC3)CC[C@H]2C)n1
# How it was run: as §1
# encorafenib = compound: COC(=O)N[C@@H](C)CNc1nccc(-c2cn(C(C)C)nc2-c2cc(Cl)cc(NS(C)(=O)=O)c2F)n1 [encorafenib]
# How it was run: as §1
# [10] = compound: COC(=O)[C@H](CCSC)NC(=O)C1=C(C=C(C=C1)NC[C@H](CS)N)C2=CC=CC=C2
# How it was run: as §1
Target,log2 fold change [1],log2 fold change (volasertib),log2 fold change [2],log2 fold change (epoxomicin),log2 fold change [3],log2 fold change [4],log2 fold change [5],log2 fold change (rosiglitazone),log2 fold change [6],log2 fold change [7],log2 fold change (saracatinib),log2 fold change (sotrastaurin),log2 fold change (alvocidib),log2 fold change (Tubastatin A),log2 fold change [8],log2 fold change (defactinib),log2 fold change (rucaparib),log2 fold change [9],log2 fold change (encorafenib),log2 fold change [10]
AMPD2 (UniProt Q01433),inactive: 0.032,inactive: -0.014,inactive: -0.022,inactive: 0.001,inactive: -0.022,inactive: -0.042,inactive: 0.014,inactive: 0.006,inactive: -0.05,inactive: -0.067,inactive: 0.039,inactive: 0.038,inactive: -0.048,inactive: -0.047,inactive: -0.05,inactive: -0.016,inactive: -0.032,inactive: -0.033,inactive: 0.001,inactive: 0.003
ADIPOR1 (UniProt Q96A54),inactive: 0.133,inactive: -0.133,inactive: -0.038,inactive: 0.086,inactive: 0,–,inactive: 0.033,inactive: 0.045,inactive: -0.05,–,inactive: -0.046,inactive: -0.025,–,–,inactive: -0.273,inactive: 0,inactive: 0.046,inactive: -0.027,inactive: -0.075,inactive: -0.009
AHSA1 (UniProt O95433),inactive: -0.085,active: -0.228,inactive: 0.038,inactive: 0.023,–,inactive: -0.052,inactive: 0,–,inactive: -0.06,inactive: 0.038,inactive: 0.022,inactive: 0.014,–,inactive: -0.003,inactive: 0,inactive: -0.061,inactive: -0.084,inactive: 0.011,inactive: 0.02,inactive: -0.008
AKAP8L (UniProt Q9ULX6),inactive: -0.14,active: -0.394,inactive: 0.059,inactive: 0.072,–,inactive: -0.039,inactive: 0.043,–,inactive: 0.171,inactive: -0.25,inactive: -0.127,inactive: -0.203,–,inactive: 0.055,inactive: -0.097,active: -0.477,inactive: -0.008,inactive: 0.027,inactive: 0.025,inactive: 0.049
AKR1C2 (UniProt P52895),inactive: 0.27,inactive: 0.087,inactive: 0.03,inactive: -0.139,–,inactive: 0.002,inactive: -0.006,–,active: 0.568,inactive: -0.016,inactive: -0.108,inactive: -0.009,–,inactive: 0.111,inactive: 0.052,inactive: 0.146,inactive: 0.146,inactive: 0.047,inactive: 0.094,inactive: -0.06
AIP (UniProt O00170),inactive: -0.115,active: -0.372,inactive: 0.054,inactive: 0.172,–,inactive: -0.051,inactive: 0.057,–,inactive: -0.085,inactive: -0.047,inactive: 0.009,inactive: -0.038,–,inactive: 0.034,inactive: 0.028,inactive: -0.068,inactive: -0.015,inactive: -0.046,inactive: 0.065,inactive: -0.025
AGPAT1 (UniProt Q99943),inactive: -0.032,active: -0.243,inactive: 0.015,inactive: -0.056,–,inactive: -0.006,inactive: 0.032,–,inactive: -0.102,active: 0.315,inactive: -0.009,inactive: 0.045,–,inactive: -0.004,inactive: 0.074,inactive: -0.079,inactive: -0.109,inactive: -0.011,inactive: 0.039,inactive: 0.003
AKT1 (UniProt P31749),inactive: 0,inactive: -0.503,inactive: 0.068,inactive: 0.158,–,inactive: -0.08,inactive: 0.133,–,inactive: 0.107,inactive: 0.222,inactive: -0.163,inactive: -0.25,–,inactive: 0.111,inactive: 0.317,inactive: -0.062,inactive: 0.038,inactive: -0.24,inactive: -0.003,inactive: -0.025
ALDH9A1 (UniProt P49189),inactive: -0.035,inactive: 0.009,inactive: 0.111,inactive: -0.011,–,inactive: -0.005,inactive: 0,–,inactive: -0.015,inactive: 0.016,inactive: 0.005,inactive: 0.032,–,inactive: -0.019,inactive: 0.016,inactive: -0.008,inactive: -0.014,inactive: -0.041,inactive: 0.023,inactive: -0.058
AFDN isoform 5 (UniProt P55196),inactive: -0.072,active: -0.254,inactive: 0.05,inactive: 0.047,–,inactive: -0.099,inactive: 0.008,–,inactive: -0.003,active: -0.353,inactive: -0.034,inactive: -0.032,–,inactive: 0.025,inactive: -0.043,inactive: -0.115,inactive: 0.023,inactive: 0.035,inactive: 0.077,inactive: -0.033
ALDH9A1 isoform 3 (UniProt P49189),inactive: 0,inactive: -0.003,inactive: -0.048,inactive: 0.011,–,inactive: -0.025,inactive: -0.01,–,inactive: -0.065,inactive: -0.027,inactive: -0.019,inactive: 0.01,–,inactive: -0.024,inactive: 0.05,inactive: -0.024,inactive: -0.054,inactive: -0.009,inactive: -0.016,inactive: -0.005
AIFM2 (UniProt Q9BRQ8),inactive: 0.002,inactive: -0.035,inactive: -0.058,inactive: -0.035,–,inactive: -0.017,inactive: 0.003,–,inactive: -0.069,inactive: 0.068,inactive: 0.017,inactive: 0.08,–,inactive: -0.026,inactive: -0.016,inactive: -0.029,inactive: 0.011,inactive: 0.003,inactive: -0.017,inactive: -0.01
ADD1 isoform 3 (UniProt P35611),inactive: 0.077,inactive: 0.015,inactive: -0.015,inactive: -0.012,–,inactive: 0.011,inactive: -0.039,–,inactive: -0.055,inactive: 0.053,inactive: 0.095,inactive: -0.031,–,inactive: -0.002,inactive: 0.008,inactive: -0.039,inactive: -0.018,inactive: 0,inactive: -0.024,inactive: 0.031
AMFR (UniProt Q9UKV5),inactive: -0.205,inactive: -0.215,inactive: 0.044,inactive: 0.049,–,inactive: 0,inactive: -0.007,–,inactive: 0.01,inactive: -0.055,inactive: -0.06,inactive: -0.056,–,inactive: -0.016,inactive: 0.088,inactive: -0.043,inactive: 0.011,inactive: -0.015,inactive: 0.033,inactive: 0.008
ALDH1B1 (UniProt P30837),inactive: -0.036,inactive: 0.05,inactive: -0.005,inactive: 0.032,–,inactive: -0.113,inactive: 0.001,–,inactive: -0.095,inactive: 0.058,inactive: -0.015,inactive: 0.001,–,inactive: 0.014,inactive: 0.002,inactive: -0.055,inactive: -0.015,inactive: 0.062,inactive: 0.013,inactive: -0.042
ADH5 (UniProt P11766),inactive: 0.01,inactive: 0.02,inactive: -0.024,inactive: -0.016,–,inactive: -0.001,inactive: -0.01,–,inactive: -0.052,inactive: -0.02,inactive: 0.04,inactive: 0.03,–,inactive: -0.025,inactive: -0.025,inactive: -0.014,inactive: -0.066,inactive: -0.025,inactive: -0.006,inactive: 0.002
AGPAT5 (UniProt Q9NUQ2),inactive: -0.169,active: -0.281,inactive: -0.068,inactive: 0.007,–,inactive: -0.13,inactive: 0,–,inactive: -0.067,inactive: -0.25,inactive: 0.016,inactive: 0.08,–,inactive: -0.075,inactive: -0.021,inactive: 0.011,inactive: 0.012,inactive: 0.083,inactive: -0.011,inactive: -0.019
AKR1C3 (UniProt P42330),inactive: 0.011,inactive: 0.009,inactive: -0.01,inactive: 0,–,inactive: -0.247,inactive: 0.067,–,inactive: -0.127,inactive: 0.214,inactive: 0.05,inactive: 0.093,–,inactive: 0.044,inactive: 0.188,inactive: 0.222,inactive: 0.061,inactive: 0.424,inactive: -0.081,inactive: 0.007
ADRM1 (UniProt Q16186),inactive: 0.122,inactive: 0.197,inactive: 0.024,inactive: -0.083,–,inactive: -0.013,inactive: -0.006,–,inactive: 0.045,inactive: 0.062,inactive: -0.086,inactive: -0.091,–,inactive: 0.18,inactive: -0.067,inactive: 0.087,inactive: -0.022,inactive: 0.111,inactive: 0.108,inactive: 0.017

# Two entries from above, tab-delimited.
Target	log2 fold change [1]	log2 fold change (volasertib)	log2 fold change [2]	log2 fold change (epoxomicin)	log2 fold change [3]	log2 fold change [4]	log2 fold change [5]	log2 fold change (rosiglitazone)	log2 fold change [6]	log2 fold change [7]	log2 fold change (saracatinib)	log2 fold change (sotrastaurin)	log2 fold change (alvocidib)	log2 fold change (Tubastatin A)	log2 fold change [8]	log2 fold change (defactinib)	log2 fold change (rucaparib)	log2 fold change [9]	log2 fold change (encorafenib)	log2 fold change [10]
ADH5 (UniProt P11766)	inactive: 0.01	inactive: 0.02	inactive: -0.024	inactive: -0.016	–	inactive: -0.001	inactive: -0.01	–	inactive: -0.052	inactive: -0.02	inactive: 0.04	inactive: 0.03	–	inactive: -0.025	inactive: -0.025	inactive: -0.014	inactive: -0.066	inactive: -0.025	inactive: -0.006	inactive: 0.002
AGPAT5 (UniProt Q9NUQ2)	inactive: -0.169	active: -0.281	inactive: -0.068	inactive: 0.007	–	inactive: -0.13	inactive: 0	–	inactive: -0.067	inactive: -0.25	inactive: 0.016	inactive: 0.08	–	inactive: -0.075	inactive: -0.021	inactive: 0.011	inactive: 0.012	inactive: 0.083	inactive: -0.011	inactive: -0.019
